For 14 molecules, binding results are on record in publication PMC7909837, “Function and Regulation of Chloroplast Peroxiredoxin IIE” (Antioxidants, 2021).

Amino acid sequences for entries named in this document (tags omitted). Residues count along the entry.
UniProt Q9SKP6, residues 61-315: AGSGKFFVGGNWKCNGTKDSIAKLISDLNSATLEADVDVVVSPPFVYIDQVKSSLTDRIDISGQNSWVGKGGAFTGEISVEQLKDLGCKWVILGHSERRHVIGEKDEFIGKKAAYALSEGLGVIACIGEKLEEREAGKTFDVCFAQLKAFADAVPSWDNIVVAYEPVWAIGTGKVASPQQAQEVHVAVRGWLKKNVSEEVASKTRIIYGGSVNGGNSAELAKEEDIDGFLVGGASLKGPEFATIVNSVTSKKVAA
UniProt P37702, residues 20-541: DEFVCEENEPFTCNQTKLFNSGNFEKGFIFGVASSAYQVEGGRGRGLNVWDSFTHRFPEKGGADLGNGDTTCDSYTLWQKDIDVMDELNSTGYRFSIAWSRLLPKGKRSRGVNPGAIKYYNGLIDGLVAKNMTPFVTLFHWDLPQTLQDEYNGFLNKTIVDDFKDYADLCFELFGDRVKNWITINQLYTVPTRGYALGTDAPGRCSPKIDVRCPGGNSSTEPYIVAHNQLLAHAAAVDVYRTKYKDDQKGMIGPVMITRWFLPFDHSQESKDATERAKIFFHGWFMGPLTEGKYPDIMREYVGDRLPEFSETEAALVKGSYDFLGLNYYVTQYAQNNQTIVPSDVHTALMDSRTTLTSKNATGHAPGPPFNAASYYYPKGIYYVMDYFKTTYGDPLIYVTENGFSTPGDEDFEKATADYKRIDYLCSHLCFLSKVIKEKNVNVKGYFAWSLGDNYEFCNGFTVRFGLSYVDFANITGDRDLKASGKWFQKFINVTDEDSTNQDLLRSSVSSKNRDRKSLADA
UniProt P34791, residues 80-260: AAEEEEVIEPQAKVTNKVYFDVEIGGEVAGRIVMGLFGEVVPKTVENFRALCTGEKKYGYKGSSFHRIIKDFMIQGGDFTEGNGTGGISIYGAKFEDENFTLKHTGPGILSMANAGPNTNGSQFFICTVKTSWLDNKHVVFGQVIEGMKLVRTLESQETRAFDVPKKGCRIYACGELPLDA

These are yes or no findings as the source states them, for the method shown. In cells and extracts the contact can be indirect. These calls come from enrichment with a bait or labelling near it, and not all partners need be listed. Tags and fused reporters may be left off the sequences shown.

This assay deals with T1, Peroxiredoxin IIE (PRX-IIE), wild type, His6-tagged recombinant (A. thaliana) (UniProt Q949U7).
T1 sequence: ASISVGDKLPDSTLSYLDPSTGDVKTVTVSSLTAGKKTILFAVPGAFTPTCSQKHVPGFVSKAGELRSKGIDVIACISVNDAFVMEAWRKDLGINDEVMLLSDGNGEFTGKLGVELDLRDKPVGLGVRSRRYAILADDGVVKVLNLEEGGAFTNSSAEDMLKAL
Nature of the assay: affinity purification with mass spectrometry; reduced His-tagged PRX-IIE or PRX-IIE C146S (3 mg) bound to 1 mL Ni-NTA resin; A. thaliana leaf protein extract (about 40 mg) applied, RT, 1.5 h; washes 50 mM Tris-HCl pH 8.0 and with 200 mM NaCl; first elution 50 mM DTT, second elution 50 mM DTT + 500 mM imidazole; nano-LC ESI-QTOF-MS; Ni-NTA without PRX-IIE as control; only the target purified.

“Triosephosphate isomerase (from UniProt Q9SKP6 61-315) (enzyme)”: the binding result was “binds”.

Take “Myrosinase 1 (from UniProt P37702 20-541) (enzyme)”: the binding result was “binds”.

With “Peptidyl-prolyl cis-trans isomerase CYP20-3 (from UniProt P34791 80-260) (enzyme)”, the binding entry was “binds”.

As for “Proline tRNA ligase (A. thaliana (endogenous in leaves)) (enzyme)”, the binding entry is on record as “binds”.

B1: β-carbonic anhydrase 2 (enzyme, UniProt P42737 72-331)
chain: RMGNESYEDAIEALKKLLIEKDDLKDVAAAKVKKITAELQAASSSDSKSFDPVERIKEGFVTFKKEKYETNPALYGELAKGQSPKYMVFACSDSRVCPSHVLDFHPGDAFVVRNIANMVPPFDKVKYAGVGAAIEYAVLHLKVENIVVIGHSACGGIKGLMSFPLDGNNSTDFIEDWVKICLPAKSKVLAESESSAFEDQCGRCEREAVNVSLANLLTYPFVREGVVKGTLALKGGYYDFVNGSFELWELQFGISPVHSI
As to B1, the binding result was “binds”.

B2: Magnesium-chelatase subunit ChII-2 (enzyme, UniProt Q5XF33 56-418)
chain: VMNVATEINSVEQAKKIDSKESARPVYPFAAIVGQDEMKLCLLLNVIDPKIGGVMIMGDRGTGKSTTVRSLVDLLPEITVVSGDPYNSDPRDPECMGKEVREKVQKGEELSVIETKINMVDLPLGATEDRVCGTIDIEKALTEGVKAFEPGLLAKANRGILYVDEVNLLDDHLVDVLLDSAASGWNTVEREGISISHPARFILIGSGNPEEGELRPQLLDRFGMHAQVGTVRDAELRVKIVEERARFDSNPKEFRETYQEEQLKLQEQITTARSNLSAVQIDQDLKVKISKVCAELDVDGLRGDMVINRAARALAALQGRDQVTAEDVGIVIPNCLRHRLRKDPLESMDSGILVTEKFYEVFT
As to B2, the binding entry is “binds”.

B3: Plastidial pyruvate kinase 2 (enzyme, UniProt Q9FLW9 64-579)
chain: SARVETEVIPVSPEDVPNREEQLERLLEMQQFGDTSVGMWSKPTVRRKTKIVCTVGPSTNTREMIWKLAEAGMNVARMNMSHGDHASHKKVIDLVKEYNAQTKDNTIAIMLDTKGPEVRSGDLPQPIMLDPGQEFTFTIERGVSTPSCVSVNYDDFVNDVEAGDMLLVDGGMMSFMVKSKTKDSVKCEVVDGGELKSRRHLNVRGKSATLPSITEKDWEDIKFGVENKVDFYAVSFVKDAQVVHELKKYLQNSGADIHVIVKIESADSIPNLHSIITASDGAMVARGDLGAELPIEEVPILQEEIINLCRSMGKAVIVATNMLESMIVHPTPTRAEVSDIAIAVREGADAVMLSGETAHGKFPLKAAGVMHTVALRTEATITSGEMPPNLGQAFKNHMSEMFAYHATMMSNTLGTSTVVFTRTGFMAILLSHYRPSGTIYAFTNEKKIQQRLALYQGVCPIYMEFTDDAEETFANALATLLKQGMVKKGEEIAIVQSGTQPIWRSQSTHNIQVRKV
In the case of B3, the binding result is reported as “binds”.

B4: 14-3-3 χ (protein, UniProt P42643 1-267)
chain: MATPGASSARDEFVYMAKLAEQAERYEEMVEFMEKVAKAVDKDELTVEERNLLSVAYKNVIGARRASWRIISSIEQKEESRGNDDHVSLIRDYRSKIETELSDICDGILKLLDTILVPAAASGDSKVFYLKMKGDYHRYLAEFKSGQERKDAAEHTLTAYKAAQDIANSELAPTHPIRLGLALNFSVFYYEILNSPDRACNLAKQAFDEAIAELDTLGEESYKDSTLIMQLLRDNLTLWTSDMQDDVADDIKEAAPAAAKPADEQQS
Regarding B4, the binding entry is recorded as “binds”.

B5: MLP-like protein 43 (protein, UniProt Q9SSK5 1-158)
chain: MAEASSLVGKLETEVEIKASAKKFHHMFTERPHHVSKATPDKIHGCELHEGDWGKVGSIVIWKYVHDGKLTVGKNKIEAVDPEKNLITFKVLEGDLMNEYKSFAFTLQVTPKQGESGSIAHWHLEYEKISEEVAHPETLLQFCVEISKEIDEHLLAEE
With B5, the binding entry is “binds”.

B6: Leucine aminopeptidase 1 (enzyme, UniProt P30184 1-520)
chain: MAHTLGLTQPNSTEPHKISFTAKEIDVIEWKGDILVVGVTEKDLAKDGNSKFENPILSKVDAHLSGLLAQVSSEEDFTGKPGQSTVLRLPGLGSKRIALIGLGQSVSSPVAFHSLGEAVATVSKASQSTSAAIVLASSVSDESKLSSVSALASGIVLGLFEDGRYKSESKKPSLKAVDIIGFGTGAEVEKKLKYAEDVSYGVIFGRELINSPANVLTPAVLAEEAAKVASTYSDVFTANILNEEQCKELKMGSYLAVAAASANPPHFIHLVYKPPNGSVKTKLALVGKGLTFDSGGYNIKTGPGCSIELMKFDMGGSAAVLGAAKAIGEIKPPGVEVHFIVAACENMISGTGMRPGDVITASNGKTIEVNNTDAEGRLTLADALVYACNQGVDKIVDLATLTGACVIALGTSMAGIYTPSDELAKEVIAASERSGEKLWRMPLEESYWEMMKSGVADMVNTGGRAGGSITAALFLKQFVSEKVQWMHIDMAGPVWNEKKKSGTGFGVATLVEWVQKNSSS
As for B6, the binding entry is on record as “binds”.

B7: Phosphoglycerate mutase-like protein 1 (protein, UniProt Q9FGF0 1-282)
chain: METGAGIGLYPLHRCKTIYLVRHAQGIHNVDGEKNYKAYMSHDYFDAELTQLGWKQVDSLRKHVHSSGLHKKIELVISSPLMRTLQTAVGVFGGEGYTDMSDVLPLMVANAGNSSRAAISSLNCPPVITEESCREHLGVHPCDQRRSISDYQFLFPAVDFSLIESEEDKLWKADVRETIEELAARGKKFLNWLWTRKEKEIAIVTHSGFLFHTLNALQNECHPDVKKEICGHFANCELRSMVIVDRSMLGSDSSVTDYPGKIPKGIDLPSDAVVDDNNIKVE
Turning to B7, the binding result is “binds”.

B8: 14-3-3 λ (protein, UniProt P48349 1-248)
chain: MAATLGRDQYVYMAKLAEQAERYEEMVQFMEQLVTGATPAEELTVEERNLLSVAYKNVIGSLRAAWRIVSSIEQKEESRKNDEHVSLVKDYRSKVESELSSVCSGILKLLDSHLIPSAGASESKVFYLKMKGDYHRYMAEFKSGDERKTAAEDTMLAYKAAQDIAAADMAPTHPIRLGLALNFSVFYYEILNSSDKACNMAKQAFEEAIAELDTLGEESYKDSTLIMQLLRDNLTLWTSDMQEQMDEA
Consider B8, for which the binding result is listed as “binds”.

B9: β-amylase 3 (enzyme, UniProt O23553 50-548)
chain: EMKFTHEKTFTPEGETLEKWEKLHVLSYPHSKNDASVPVFVMLPLDTVTMSGHLNKPRAMNASLMALKGAGVEGVMVDAWWGLVEKDGPMNYNWEGYAELIQMVQKHGLKLQVVMSFHQCGGNVGDSCSIPLPPWVLEEISKNPDLVYTDKSGRRNPEYISLGCDSVPVLRGRTPIQVYSDFMRSFRERFEGYIGGVIAEIQVGMGPCGELRYPSYPESNGTWRFPGIGEFQCYDKYMKSSLQAYAESIGKTNWGTSGPHDAGEYKNLPEDTEFFRRDGTWNSEYGKFFMEWYSGKLLEHGDQLLSSAKGIFQGSGAKLSGKVAGIHWHYNTRSHAAELTAGYYNTRNHDGYLPIAKMFNKHGVVLNFTCMEMKDGEQPEHANCSPEGLVKQVQNATRQAGTELAGENALERYDSSAFGQVVATNRSDSGNGLTAFTYLRMNKRLFEGQNWQQLVEFVKNMKEGGHGRRLSKEDTTGSDLYVGFVKGKIAENVEEAALV
Take B9: the binding result is given as “binds”.

B10: Plastidial pyruvate kinase 3 (enzyme, UniProt Q93Z53 56-571)
chain: SIKISEDSRKPKAYAENGAFDVGVLDSSSYRLADSRTSSNDSRRKTKIVCTIGPSSSSREMIWKLAEAGMNVARLNMSHGDHASHQITIDLVKEYNSLFVDKAIAIMLDTKGPEVRSGDVPQPIFLEEGQEFNFTIKRGVSLKDTVSVNYDDFVNDVEVGDILLVDGGMMSLAVKSKTSDLVKCVVIDGGELQSRRHLNVRGKSATLPSITDKDWEDIKFGVDNQVDFYAVSFVKDAKVVHELKNYLKTCSADISVIVKIESADSIKNLPSIISACDGAMVARGDLGAELPIEEVPLLQEEIIRRCRSIHKPVIVATNMLESMINHPTPTRAEVSDIAIAVREGADAIMLSGETAHGKFPLKAVNVMHTVALRTEASLPVRTSASRTTAYKGHMGQMFAFHASIMANTLSSPLIVFTRTGSMAVLLSHYRPSATIFAFTNQRRIMQRLALYQGVMPIYMEFSDDAEDTYARSLKLLQDENMLKEGQHVTLVQSGSQPIWREESTHLIQVRKIKIGG
Consider B10, for which the binding result was “binds”.
